Where “and” joins values, the source holds several entries; their conditions need not be identical. Identical values can stand only once. The whole screen tested about 300,000 compounds, of which about 3,700 (1.2%) were called active. This list was built around the results that the source calls inconclusive (neither active nor inactive); the mix of calls is not that of the screen. Calls follow the shape of the full dose curve; tested in HEK293 cells. Potencies of inconclusive entries are doubtful fits and often do not repeat.
Experiment: qHTS for Inhibitors of binding or entry into cells for Lassa Virus; also: nearly all actives have a fitted effect of over 50% in size
Conditions: Lassa virus pseudotype entry inhibition, cell reporter; series mostly up to 37.9 µM
Potency is read from the fitted curve at half-maximal effect.

SMILES	Potency
CC1(C)CC(=O)C2=C(C1)Nc1ccccc1[S@]2=O	inconclusive: 3.16 µM [activator, full curve, poor fit]
CCC(=O)OC1(C(C)=O)CCC2C3CCC4=CC(=O)CCC4(C)C3CCC21C (stereo unspecified)	inconclusive: 10 µM [inhibitor, partial curve]
CCCn1cnc2c(SCc3ccccc3F)nc(N)nc21	inconclusive: 31.6 µM [inhibitor, single point]
CCc1ccccc1NC(=O)c1noc(C(C)C)c1[N+](=O)[O-]	inconclusive: 7.08 µM [inhibitor, full curve, poor fit]
CCCc1nnc2c(N(C)S(=O)(=O)c3ccc(C)cc3)nc3ccccc3n12	inactive
CCc1ccccc1NC(=S)/N=C(\N)Nc1nc(C)c2cc(C)ccc2n1	inconclusive: 35.5 µM [inhibitor, single point]
COc1nccnc1NS(=O)(=O)c1ccc(NC(=O)c2ccccc2Br)cc1	inactive
Cc1cc(C)cc(NC(=S)Nc2ccccn2)c1	inconclusive: 1 µM [activator, single point]
c1ccc(CSc2nnc(SCc3ccccn3)s2)nc1	inconclusive: 4.11 µM [activator, partial curve, poor fit]
CCCCOc1ncnc2c1[nH]c1ccc(OCC)cc12	inactive
O=C(COc1ccc(N2C(=O)c3ccccc3C2=O)cc1)c1ccccc1	inactive
COCCn1nnnc1CN1C2CCCC1CC(NC(C)=O)C2 (stereo unspecified)	inactive
Cc1cc(C)c(C#N)c(SCc2cc3c(cc2Cl)OCO3)n1	inactive
NNC(=S)NCc1cccnc1	inconclusive: 2.51 µM [activator, full curve, poor fit]
CCOC(=O)CCN1C(=O)[C@@H]2[C@H]3[C@H](O)[C@H](O)CC(=NOCc4ccccc4)[C@@H]3CC[C@H]2C1=O	inconclusive: 0.668 µM [activator, partial curve, poor fit]
O=C(Nc1cccc(Cl)c1)c1ccc2c(c1)SC1=NS(=O)(=O)CCN12	inconclusive: 10 µM [inhibitor, partial curve]
COc1cccc(Nc2nccc(-c3cnn4ncccc34)n2)c1	active: 0.56 µM
CCCCCCn1c(/C=C/c2ccccc2)nc2ccccc21	inconclusive: 7.08 µM [activator, partial curve, poor fit]
COc1ccc(Sc2ccc(NC(=O)c3ccccc3Cl)cc2C#N)cc1	inconclusive: 11.2 µM [inhibitor, partial curve, poor fit]
CSc1cccc(NC(=O)c2ccc3c(c2)CCCN3S(C)(=O)=O)c1	inconclusive: 35.5 µM [inhibitor, single point]
CC(=O)N[C@@H](CS)C(=O)O	inactive and inconclusive: 23.1 µM [activator, partial curve]
COC(=O)/C(C#N)=C/N(C)C	inactive
COc1ccc(-n2ccc(=O)c(C(=O)O)n2)c(OC)c1	inactive

SMILES	Potency
COc1ccc(C)cc1NCC(=O)Nc1ccc(C(C)(C)C)cc1	inactive
O=S1(=O)CCSC[C@@H](CNCc2ccco2)N1	inconclusive: 3.96 µM [activator, single point]
Cc1ccc(S(=O)(=O)N(Cc2ccc(F)cc2)Cc2ccco2)cc1	inconclusive: 12.6 µM [inhibitor, partial curve]
CCSc1nnc(NC(=O)c2cccc(OCc3c(C)noc3C)c2)s1	inconclusive: 16.4 µM [inhibitor, partial curve, poor fit]
Cc1ccc(NC(=O)N2CCc3ccccc32)cc1C	inconclusive: 12.6 µM [inhibitor, partial curve, poor fit]
c1ccc(-c2nnnn2-c2ccccn2)cc1	inconclusive: 12.6 µM [activator, single point]
O=C1NC(=S)N(C(=O)c2ccc(F)cc2)/C1=C/c1ccccc1	inconclusive: 35.5 µM [inhibitor, partial curve, poor fit]
Oc1ccccc1C=NNC(=S)NN=Cc1ccccc1O	inconclusive: 7.94 µM [inhibitor, partial curve, poor fit]
N#Cc1ccccc1COc1ccc(/C=C/C(=O)O)cc1	inconclusive: 1.78 µM [inhibitor, full curve, poor fit]
COc1ccc(CC(=O)Nc2cc(S(C)(=O)=O)ccc2Cl)cc1S(=O)(=O)N1CCOCC1	inactive
Cc1csc2ncnc(N3CCN(C(=S)Nc4ccc(F)cc4F)CC3)c12	inconclusive: 35.5 µM [inhibitor, single point]
CN1C(=O)S/C(=C\c2ccccc2OCc2ccc(C(=O)O)cc2)C1=O	inactive
O=C(c1ccco1)N(CCC(c1ccccc1)c1ccco1)Cc1ccccc1 (stereo unspecified)	inconclusive: 0.651 µM [inhibitor, single point]
COc1ccc(CCNC(=O)c2cc(-c3ccc(C)cc3O)n[nH]2)cc1OC	inconclusive: 10 µM [inhibitor, partial curve, poor fit]
O=C(CNC(=O)OCc1ccccc1)NC1CCCCCC1	inconclusive: 2 µM [inhibitor, partial curve, poor fit]
CCN1C(=O)c2ccccc2S(=O)(=O)c2ccc(C(=O)NCc3ccc(F)cc3)cc21	inconclusive: 22.4 µM [inhibitor, single point]
Cc1cnc(NC(=O)Cc2ccc(Br)cc2)s1	inactive
COc1ccc2c(c1)C(=O)/C(=C/C=C/c1ccccc1)CC2	inactive
CCCCNC(=O)C12CCC(C)(C(=O)C1Br)C2(C)C (stereo unspecified)	inconclusive: 5.62 µM [activator, single point]
O=C(CSc1oc(-c2ccco2)nc1S(=O)(=O)c1ccc(Br)cc1)c1ccc(Cl)cc1	inconclusive: 7.08 µM [inhibitor, partial curve, poor fit]
Cc1ccc(C2CC(c3cccs3)=NN2C(=O)c2ccco2)o1 (stereo unspecified)	inactive
CN(c1cccc(NC(=O)c2ccc(Cl)c(S(=O)(=O)N3CCOCC3)c2)c1)S(C)(=O)=O	inconclusive: 35.5 µM [inhibitor, single point]
COc1ccc(-n2cc(CN(C)C(C)c3ccncn3)c(-c3cccc(F)c3)n2)cc1 (stereo unspecified)	inconclusive: 11.2 µM [inhibitor, partial curve, poor fit]
COc1ccc(N2C(=O)NC3CC2(C)Oc2ccccc23)cc1OC (stereo unspecified)	inconclusive: 35.5 µM [inhibitor, single point]

SMILES	Potency
COc1ccc(CCNC(=O)c2ccc(Cl)cc2Cl)cc1	inactive
Cc1ccc(-n2ncc3c(NCc4ccccc4)ncnc32)cc1C	inconclusive: 8.91 µM [activator, partial curve]
Cc1ccc(C(=O)C2CCN(S(=O)(=O)c3ccccc3C(=O)O)CC2)cc1	inactive
CCOc1cccc(N2C(=O)CC(N3CCN(c4nc5ccccc5s4)CC3)C2=O)c1 (stereo unspecified)	inactive
CCN(CC)c1ccc(-c2nc(-c3ccccn3)no2)cc1[N+](=O)[O-]	inactive
COc1ccc(C(=O)OCCN2CCCCC2)cc1	inconclusive: 14.1 µM [activator, single point]
O=c1cc(O)c2ccccc2n1Cc1ccccc1Cl	inconclusive: 35.5 µM [inhibitor, partial curve, poor fit]
Cc1ccc(NC(=O)c2ccc3c(=O)n4c(nc3c2)CCCCC4)cc1F	inactive
c1ccc(N2CCN(c3ncnc4c3nc3n4CCCCC3)CC2)cc1	inconclusive: 35.5 µM [inhibitor, partial curve, poor fit]
CCOc1ccc(CC(=O)NCC(=O)NCc2cc(=O)n(C)c(=O)n2C)cc1	inconclusive: 6.31 µM [inhibitor, single point]
COc1ccc(OCC(=O)N/N=C/C(C)=C/c2ccco2)c(Br)c1	inconclusive: 35.5 µM [inhibitor, single point]
CCCCCCCOc1ccc(-c2ccc(C#N)cn2)cc1	inactive
Cc1noc(C)c1S(=O)(=O)Nc1ccc(O)c2c(=O)cc(-c3ccccc3Cl)oc12	inconclusive: 15.8 µM [activator, single point]
COc1cc(CNc2ccc(C)c(C)c2)cc(OC)c1OC	inconclusive: 2.06 µM [inhibitor, full curve, poor fit]
CC(=O)c1ccc(OCc2ccc(C(=O)c3ccccc3)cc2)cc1	inconclusive: 15.8 µM [inhibitor, single point]
O=C1NC(=O)C(CCc2ccncc2)(Cc2cccc(Cl)c2Cl)C(=O)N1c1ccc(Br)cc1 (stereo unspecified)	inconclusive: 5.01 µM [inhibitor, partial curve, poor fit]
COc1ccc(CNC(=O)CN2CCC(C(=O)c3ccc(OC)cc3)CC2)cc1	inconclusive: 13 µM [inhibitor, partial curve, poor fit]
O=C(CSC(=S)N1CCCC1)NCC(=O)Nc1ccc(F)c(F)c1	inactive
CC(C)N1CCC(N2CCN(CCCc3ccccc3)CC2CCO)CC1 (stereo unspecified)	inconclusive: 15.8 µM [inhibitor, single point]
Cc1ccc(-c2nnc(N(C)C(=O)c3ccccn3)s2)cn1	inactive
CCCCCNC(=O)N[C@H](C(=O)O)C(C)C	inconclusive: 32.6 µM [inhibitor, single point]
COc1ccc(N(CC(=O)NN=C2CCN(C)CC2)S(=O)(=O)c2ccc(NC(C)=O)cc2)cc1	inconclusive: 35.5 µM [inhibitor, single point]
CCCn1c(C)cc(C(=O)COC(=O)c2nccnc2N)c1C	inconclusive: 7.94 µM [inhibitor, partial curve, poor fit]

Source: PubChem BioAssay AID540256 (National Center for Advancing Translational Sciences (NCATS), 2011)
